Results published in patent US20020146411A1, “Anticoagulant agents useful in treatment of thrombosis” (SmithKline Beecham Corporation, priority 1996, published 2002).
Some of these results come from one statement about several compounds together. Some compounds share one range, which may span the group rather than tell each member.

B1: SB 249413: humanized anti-Factor IX mAb, heavy chain F9HZHC 1-0 (SEQ ID NO: 31), light chain F9HZLC 1-0 (SEQ ID NO: 44) (antibody, V domains shown)
VH: QVQLVQSGSELKKPGASVKVSCKASGYTFTNYGMNWVRQAPGQGLEWMGWINTRNGKSTYVDDFKGRFVFSLDTSVSTAYLQISSLKADDTAVYYCAREGNMDGYFPFTYWGQGTLVTVSS
VL: EIVLTQSPATLSLSPGERATLSCRASSSVNYMHWYQQRPGQAPRLLIYATSNLASGIPARFSGSGSGTDFTLTISSLEPEDFAVYYCQQWSINPRTFGGGTKVEIKR
B2: SB 249415: humanized anti-Factor IX mAb, heavy chain F9HZHC 1-1 (SEQ ID NO: 52), light chain F9HZLC 1-1 (SEQ ID NO: 57) (antibody, V domains shown)
VH: QVQLVQSGSELKKPGASVKVSCKASGYTFTNYGMNWVRQAPGQGLKWMGWINTRNGKSTYVDDFKGRFVFSLDSSVSTAYLQISSLKADDTAVYYCTREGNMDGYFPFTYWGQGTLVTVSS
VL: EIVLTQSPATLSLSPGERATLSCRASSSVNYMHWYQQRPGQAPKPWIYATSNLASGVPARFSGSGSGTDFTLTISSLEPEDFAVYYCQQWSINPRTFGGGTKVEIKR
B3: SB 249417: humanized anti-Factor IX mAb, heavy chain F9HZHC 1-1 (SEQ ID NO: 52), light chain F9HZLC 2-0 (SEQ ID NO: 74) (antibody, V domains shown)
VH: QVQLVQSGSELKKPGASVKVSCKASGYTFTNYGMNWVRQAPGQGLKWMGWINTRNGKSTYVDDFKGRFVFSLDSSVSTAYLQISSLKADDTAVYYCTREGNMDGYFPFTYWGQGTLVTVSS
VL: QIVLTQSPSSLSASVGDRVTITCRASSSVNYMHWYQQKPGKAPKPWIYATSNLASGVPSRFSGSGSGTDYTFTISSLQPEDIATYYCQQWSINPRTFGQGTKVEIKR
B4: SB 257732: humanized anti-Factor IX mAb, heavy chain F9HZHC 3-0 (SEQ ID NO: 89), light chain F9HZLC 3-0 (SEQ ID NO: 99) (antibody, V domains shown)
VH: MGWSCIILFLVATATGVHSQIQLVQSGSELKKPGASVKVSCKASGYTFTNYGMNWVRQAPGQGLEWMGWINTRNGKSTYVDDFKGRFVFSLDTSVSTAYLQISSLKAEDTAVYFCTREGNMDGYFPFTYWGQGTLVTVSS
VL: MGWSCIILFLVATATGVHSQIVLTQSPSSLSASVGDRVTITCRASSSVNYMHWYQQKPGKAPKPWIYATSNLASGVPSRFSGSGSGTDYTLTISSLQPEDFATYYCQQWSINPRTFGGGTKLEIKRTVV

Test: Differential scanning calorimetry, thermal stability
Assay type: physicochemical

Unfolding Tm, 70-75 °C:
B1
B2
B3
B4
